Measurements: PubChem BioAssay AID624297 (National Center for Advancing Translational Sciences (NCATS), 2012)
About 6,200 (1.8%) of roughly 340,000 compounds were called active. This list was built around the results that the source calls inconclusive (neither active nor inactive); the mix of calls is not that of the screen. The call rests on the fitted dose curve; in most records, active means well fitted activation curve with a large enough effect; inconclusive means small, poorly fitted or top-dose-only effect; inactive means no such curve, though single readings can be large or run the other way. Potencies of inconclusive entries are doubtful fits and often do not repeat.

Assay: A quantitative high throughput screen for small molecules that induce DNA re-replication in SW480 colon adenocarcinoma cells. Further: nearly all actives have a fitted effect of over 55% in size. On re-replication activation: % of control where 0% means no effect.
Conditions: Hoechst DNA content imaging, 48 h; re-replication activation: at 46.1 µM (top of the series) unless noted
Method in brief: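 Quantitative HTS format with DMSO vehicle controls; 48 hr drug incubation at 37 C, then 40 min Hoechst staining and scanning imager measurement at 405 nm excitation.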
Potency means the concentration at half of the fitted maximal effect.

| SMILES | Potency | re-replication activation |
| --- | --- | --- |
| COC(=O)CSc1nc(C)cc(C)n1 | inconclusive: 29.1 µM [activator, single point] |  |
| CSCC(=O)Nc1cc(C)on1 | inconclusive: 0.58 µM [activator, partial curve, poor fit] |  |
| CC(C)c1ccc(Nc2nc(Cl)nc(NCCO)n2)cc1 | inactive |  |
| CN(C(=O)c1ccc(S(=O)(=O)c2cccc(Cl)c2)c([N+](=O)[O-])c1)C1CCCCC1 | inconclusive: 29.1 µM [activator, single point] |  |
| Cc1ccc2cccc(OCCOCCOc3ccccc3Br)c2n1 | inconclusive: 2.06 µM [activator, partial curve, poor fit] |  |
| Cc1sc2ncnc(Sc3nnnn3-c3ccccc3)c2c1C | inconclusive: 29.1 µM [activator, partial curve, poor fit] |  |
| COCCCNC(=S)N/N=C/c1ccc(N(C)C)cc1 | inactive |  |
| Cc1cccc(Nc2nc(NCc3ccco3)c3ccccc3n2)c1 | inconclusive: 13 µM [activator, partial curve] |  |
| CCc1nc(N2CCN(C(=O)c3ccco3)CC2)c(C#N)c2c1COC(C)(C)C2 | inactive |  |
| O=C(/C=C/c1ccc(F)cc1)NC(=S)NNC(=O)c1cnccn1 | inactive |  |
| Cc1ccc(OCC(=O)Nc2ccc(N3CCN(C(=O)c4ccco4)CC3)cc2)cc1C | inactive |  |
| NC(=O)c1ccccc1N/C=C1\CCCCC1=O | inconclusive: 6.51 µM [activator, single point] |  |
| O=c1[nH]c(Sc2ccc([N+](=O)[O-])cc2[N+](=O)[O-])nc2ccccc12 | inconclusive: 5.8 µM [activator, full curve, poor fit] |  |
| COC(=O)C(NC(=O)c1ccccc1)=C(C)C | inconclusive: 29.1 µM [activator, single point] |  |
| O=C(NCCNC1CCC(c2ccccc2)CC1)c1cccs1 (centres undefined) | inconclusive: 16.4 µM [activator, single point] |  |
| O=[N+]([O-])c1ccc(C=NN=Cc2ccc([N+](=O)[O-])cc2)cc1 | inactive |  |
| NC12CC3CC(C1)CC(O)(C3)C2 | inconclusive: 6.51 µM [activator, single point] |  |
| Cc1cc(C)c2c3c(sc2n1)C(c1ccccc1)C(C#N)=C(N)O3 (centres undefined) | inconclusive: 31.6 µM [activator, single point] |  |
| O=C(c1ccc(Cl)cc1)N1CCCC(c2ccccc2)=N1 | inconclusive: 29.1 µM [activator, single point] |  |
| O=C(C[n+]1ccc2ccccc2c1)c1ccccc1 | inconclusive: 18.4 µM [activator, single point] |  |
| CCSc1nc2sc3c(c2c(=O)n1-c1ccc(C)cc1)CCN(C)C3 | inconclusive: 18.4 µM [activator, partial curve, poor fit] |  |
| CCN1C(=O)c2ccccc2S(=O)c2ccc(C(=O)NCCN(CC(C)C)CC(C)C)cc21 (centres undefined) | inactive |  |
| O=C(O)Cn1nnc(COc2ccccc2)n1 | inconclusive: 14.6 µM [activator, single point] |  |

| SMILES | Potency | re-replication activation |
| --- | --- | --- |
| COc1ccccc1C(=O)NCCC(=O)NCC1COc2ccccc2O1 (centres undefined) | inactive |  |
| CCOC(=O)N1CCC(NC(=S)Nc2ccc3nc(N4CCN(CC)CC4)cc(C)c3c2)CC1 | inconclusive: 29.1 µM [activator, single point] |  |
| C[n+]1c(-c2ccccc2)cc2c(=Cc3ccccc3)c3ccccc3n21 | inconclusive: 18.4 µM [activator, single point] |  |
| COC(=O)C1=C(C)N(Cc2ccc(C)cc2)C(=O)/C1=C\c1cc(OC)c(OC)c(OC)c1 | inconclusive: 29.1 µM [activator, single point] |  |
| CN(CCc1ccccn1)C1CCCN(S(=O)(=O)c2ccc(F)c(Cl)c2)C1 (centres undefined) | inconclusive: 18.4 µM [activator, partial curve, poor fit] |  |
| CC(=O)c1c(C)[nH]c(C(=O)Nc2ccc(C)cn2)c1C | inactive |  |
| CC1CCC/C(=C\c2ccc(O)cc2)C1=O (centres undefined) | inconclusive: 29.1 µM [activator, single point] |  |
| O=C(O)c1ccc(N/N=C/c2ccc3nccnc3c2)cc1 | inconclusive: 23.1 µM [activator, partial curve, poor fit] |  |
| O=S(=O)(Nc1ccc(O)c2ccccc12)c1cccs1 | inconclusive: 29.1 µM [activator, single point] |  |
| Cc1nc(Cl)c(C(=O)NC(=O)Nc2cccc(C(F)(F)F)c2)c(C)c1[N+](=O)[O-] | inconclusive: 0.199 µM [activator, full curve, poor fit] |  |
| Cc1cccc(N2CCN(C(=O)/C=C/c3cccs3)CC2C)c1 (centres undefined) | inconclusive: 2.91 µM [activator, full curve] |  |
| COc1cccc(Oc2coc3cc(OC(=O)N4CCOCC4)ccc3c2=O)c1 | inconclusive: 29.1 µM [activator, single point] |  |
| CCc1c(-c2ccccc2)nc2nc(C)c(C)nn12 | inconclusive: 16.4 µM [activator, single point] |  |
| Cc1ccc2c(c1)C(=O)CC(c1ccc3c(c1)OCCO3)O2 (centres undefined) | inactive |  |
| CCNC(=S)N1CCC(Cc2ccccc2)CC1 | inactive |  |
| C[C@H](CO)N1C[C@H](C)[C@@H](CN(C)S(C)(=O)=O)Oc2c(NC(=O)Nc3ccccc3)cccc2C1=O | inconclusive: 0.0046 µM [activator, full curve, poor fit] |  |
| CCOc1ccccc1NC(=O)CSc1n[nH]c(N)n1 | inactive |  |
| O=C(CSc1nnc(CNC(=O)c2c(F)cccc2Cl)o1)NCc1ccccc1 | inconclusive: 20.6 µM [activator, single point] |  |
| O=C1ON=C(c2ccc([N+](=O)[O-])cc2)/C1=C/c1ccccc1O | inconclusive: 14.6 µM [activator, single point] |  |
| COc1ccc(Nc2nnc(-c3ccncc3)s2)cc1Cl | inconclusive: 6.51 µM [activator, partial curve, poor fit] |  |
| Oc1ccc(CN2CCN(c3ccccc3)CC2)c2cccnc12 | inconclusive: 0.651 µM [activator, full curve, poor fit] |  |
| O=C(NCCn1c(C(F)(F)F)nc2ccccc21)[C@H]1CCCN1c1nc(CN2CCCCC2)cs1 | inconclusive: 2.91 µM [activator, full curve, poor fit] |  |
| Cc1cc(C(=O)NN)c(Cl)cc1Cl | inactive |  |

For reference, part of the list above:

| SMILES | Potency | re-replication activation |
| --- | --- | --- |
| Cc1ccc2c(c1)C(=O)CC(c1ccc3c(c1)OCCO3)O2 (centres undefined) | inactive |  |
| CCNC(=S)N1CCC(Cc2ccccc2)CC1 | inactive |  |
| C[C@H](CO)N1C[C@H](C)[C@@H](CN(C)S(C)(=O)=O)Oc2c(NC(=O)Nc3ccccc3)cccc2C1=O | inconclusive: 0.0046 µM [activator, full curve, poor fit] |  |

Remaining list, next part:

| SMILES | Potency | re-replication activation |
| --- | --- | --- |
| COc1ccc(-c2nc(CS(=O)CC(=O)NCCCN3CCOCC3)c(C)o2)cc1OC (centres undefined) | inconclusive: 3.66 µM [activator, partial curve, poor fit] |  |
| O=C(/C=C/c1ccc([N+](=O)[O-])cc1)OCC(=O)N1CCCC1 | inconclusive: 29.1 µM [activator, single point] |  |
| Cc1ccc(C(c2nnnn2C2CCCC2)N2c3ccccc3CC2C)cc1 (centres undefined) | inconclusive: 25.9 µM [activator, single point] |  |
| COc1ccc(CN2C(=NC(=O)C3CCCO3)SC3CS(=O)(=O)CC32)cc1 (centres undefined) | inactive |  |
| CC(=O)c1c(C)cc(C)c(CSc2nnc(-c3ccco3)o2)c1C | inactive |  |
| COc1cc(C2Nc3ccc4ccccc4c3C3=C2C(=O)CC(C)(C)C3)ccc1OC(C)C(=O)O (centres undefined) | inconclusive: 25.9 µM [activator, single point] |  |
| Oc1ccc(C23CCCC2C2(CCCC2)c2ccc(O)cc2O3)c(O)c1 (centres undefined) |  | inconclusive: 34.4% [activator] |
| CCc1cc(Cn2nc(-c3ccccc3)cc2C(=O)NCc2cccc(Br)c2)on1 | inactive |  |
| COCc1cc(C)nc(SCC(=O)Nc2ccc(C)c(C)c2)c1C#N | inconclusive: 18.4 µM [activator, single point] |  |
| Cc1ccccc1-c1cc(C(=O)Nc2sc(C(=O)OC(C)C)c(C)c2C#N)c2ccccc2n1 | inconclusive: 23.1 µM [activator, single point] |  |
| CC1=NN(C(=O)c2ccc(Cn3ccc([N+](=O)[O-])n3)cc2)C(O)(C(F)(F)F)C1 (centres undefined) | inconclusive: 20.6 µM [activator, single point] |  |
| O=C(COc1cc2oc(=O)cc(-c3ccccc3)c2cc1Cl)NCCN1CCOCC1 | inconclusive: 29.1 µM [activator, single point] |  |
| Cc1nc2scc(C)n2c(=O)c1S(=O)(=O)N1CCN(c2ccccn2)CC1 | inconclusive: 23.1 µM [activator, single point] |  |
| O=C(c1ccc(Cl)cc1)C1CCN(C(=S)Nc2ccccc2)CC1 | inactive |  |
| O=C(NC1CCCC1)C(c1ccc(F)cc1)N(Cc1ccc(F)cc1)C(=O)c1ccn[nH]1 (centres undefined) | inactive |  |
| O=C(NCC(c1cccs1)N1CCOCC1)c1cc(S(=O)(=O)N2CCOCC2)c(Cl)cc1Cl (centres undefined) | inconclusive: 0.0046 µM [activator, full curve, poor fit] |  |
| C/C(CCC(C)C)=N\NC(=O)COc1ccccc1-c1ccccc1 | inconclusive: 23.1 µM [activator, single point] |  |
| O=C(Nc1ccc(C(F)(F)F)cn1)Nc1cccs1 | inactive |  |
| CC(CO)NS(=O)(=O)c1ccc(Br)cc1F (centres undefined) | inconclusive: 32.6 µM [activator, partial curve, poor fit] |  |
| CCN1CCN(C(=O)c2cc3c(OC)c(OC)c(OC)cc3[nH]2)CC1 |  | inconclusive: 1.51% [activator] |
| Cn1c(SCC(=O)c2c(N)n(C)c(=O)n(C)c2=O)nnc1-c1ccccc1 | inconclusive: 2.31 µM [activator, partial curve, poor fit] |  |
| COc1ccc(N2CCN(Cc3nc4sc(C)c(C)c4c(=O)[nH]3)CC2)cc1 | inactive |  |
| CCOc1ccc(C(C)NC(=O)CN2C(=O)NC3(CCCCC3)C2=O)cc1OCC (centres undefined) | inconclusive: 29.1 µM [activator, single point] |  |
